# Test results: the supplement of paper PMC12889115
# The other results are listed elsewhere or left out. These are raw signals, not scaled to a control.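 Primary screen: polymyxin B was added at a level permeabilizing Salmonella outer membranes while sparing inner membranes. DMSO wells, both with and without polymyxin B, established maximum growth. Plate-to-plate variation meant each plate was ranked on its own, and the lowest-OD600 compounds were selected as hits.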
# Test system: Salmonella enterica serovar Typhimurium SL1344
# Assay: bacterial growth OD600 after 18 h with compound and polymyxin B; higher = more bacterial growth (less inhibition)
# Settings: 50 µM, Mueller-Hinton broth
smiles,measurement,setting,value
O=C(CCc1cccs1)NC1CCCc2nc(-c3cccnc3)ncc21 (centres undefined),bacterial growth OD600,polymyxin B 0.75 µg/mL,0.783
CCN1CCN(C2(C(=O)NC3CCCC3)Cc3ccccc3C2)CC1,bacterial growth OD600,polymyxin B 0.75 µg/mL,0.734
Cn1ccnc1CN1CCCC(CCc2ccc(F)c(F)c2)C1 (centres undefined),bacterial growth OD600,polymyxin B 0.75 µg/mL,0.749
COc1cc(=O)n2c(c1C(=O)NC(C)c1ccco1)CCN(Cc1ccc(C(C)C)cc1)CC2 (centres undefined),bacterial growth OD600,polymyxin B 0.75 µg/mL,0.701
Cc1c(CC(=O)NCC(F)(F)F)c2c(n1Cc1ccccc1F)CCCC2=O,bacterial growth OD600,polymyxin B 1 µg/mL,0.789
Cc1nnc(CN(C)C(=O)CC2(c3ccccc3C)CC(=O)N(Cc3ccccc3)C2=O)o1 (centres undefined),bacterial growth OD600,polymyxin B 0.75 µg/mL,0.824
COc1cc(C(=O)NCc2cccc(SC)c2)ccc1OC1CCN(C(C)=O)CC1,bacterial growth OD600,polymyxin B 1 µg/mL,0.798
CCN1CCN(C2(C(=O)NCCc3cscn3)Cc3ccccc3C2)CC1,bacterial growth OD600,polymyxin B 0.75 µg/mL,0.802
CC1=C(C(=O)N2CCCC(N3CCN(c4cccc(C(F)(F)F)c4)CC3)C2)OCCO1 (centres undefined),bacterial growth OD600,polymyxin B 1 µg/mL,0.97
